Among the data in doi:10.1101/2020.09.18.303255 are binding values, retold here.

The chains behind the UniProt entries cited, without tags or fusion partners. Residues count along the entry.
UniProt Q9BU61: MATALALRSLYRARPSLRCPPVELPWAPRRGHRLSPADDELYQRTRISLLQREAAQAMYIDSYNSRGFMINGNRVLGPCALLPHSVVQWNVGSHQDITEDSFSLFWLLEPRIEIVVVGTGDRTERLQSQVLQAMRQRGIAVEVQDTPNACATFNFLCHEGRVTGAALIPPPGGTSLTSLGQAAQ
UniProt P51970: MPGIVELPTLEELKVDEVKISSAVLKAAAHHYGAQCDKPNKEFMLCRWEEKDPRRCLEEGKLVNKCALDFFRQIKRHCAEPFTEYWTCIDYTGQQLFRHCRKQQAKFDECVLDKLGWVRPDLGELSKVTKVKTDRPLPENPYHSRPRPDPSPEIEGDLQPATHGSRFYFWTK
UniProt Q9Y6M9: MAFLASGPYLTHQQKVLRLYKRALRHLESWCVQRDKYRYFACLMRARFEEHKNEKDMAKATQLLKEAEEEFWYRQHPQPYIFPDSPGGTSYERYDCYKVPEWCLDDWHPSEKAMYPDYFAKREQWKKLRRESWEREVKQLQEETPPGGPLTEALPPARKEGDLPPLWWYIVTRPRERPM
UniProt O43674, residues 47-189: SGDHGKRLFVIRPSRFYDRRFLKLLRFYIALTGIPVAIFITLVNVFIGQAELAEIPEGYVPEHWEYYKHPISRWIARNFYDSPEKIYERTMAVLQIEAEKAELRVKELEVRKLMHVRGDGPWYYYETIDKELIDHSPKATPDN
UniProt Q9P032: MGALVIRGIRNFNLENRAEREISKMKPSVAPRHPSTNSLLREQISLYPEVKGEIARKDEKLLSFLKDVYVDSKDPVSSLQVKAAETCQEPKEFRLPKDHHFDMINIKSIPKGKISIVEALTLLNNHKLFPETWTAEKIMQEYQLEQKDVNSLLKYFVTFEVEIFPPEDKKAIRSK
UniProt O95167: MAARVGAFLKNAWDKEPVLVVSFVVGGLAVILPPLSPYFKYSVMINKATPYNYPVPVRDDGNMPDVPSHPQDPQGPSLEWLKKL
UniProt O95139: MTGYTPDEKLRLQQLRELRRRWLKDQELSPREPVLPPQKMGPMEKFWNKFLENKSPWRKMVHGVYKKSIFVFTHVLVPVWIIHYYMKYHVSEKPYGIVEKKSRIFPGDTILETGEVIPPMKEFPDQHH
UniProt O95299, residues 36-355: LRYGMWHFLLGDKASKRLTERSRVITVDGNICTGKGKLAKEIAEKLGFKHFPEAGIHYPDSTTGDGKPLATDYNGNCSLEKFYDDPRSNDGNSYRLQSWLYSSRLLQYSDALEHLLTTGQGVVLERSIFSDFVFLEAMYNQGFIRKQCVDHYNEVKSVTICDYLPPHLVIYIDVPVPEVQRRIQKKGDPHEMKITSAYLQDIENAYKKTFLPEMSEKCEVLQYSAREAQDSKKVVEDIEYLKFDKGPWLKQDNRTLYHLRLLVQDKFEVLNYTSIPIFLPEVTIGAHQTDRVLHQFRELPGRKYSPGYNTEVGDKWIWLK
UniProt O95169, residues 29-186: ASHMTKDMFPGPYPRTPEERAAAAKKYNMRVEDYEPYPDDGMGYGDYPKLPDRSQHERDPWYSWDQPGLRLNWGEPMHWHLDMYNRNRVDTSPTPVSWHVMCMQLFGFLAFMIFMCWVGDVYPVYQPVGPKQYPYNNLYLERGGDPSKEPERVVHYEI
UniProt Q9P0J0: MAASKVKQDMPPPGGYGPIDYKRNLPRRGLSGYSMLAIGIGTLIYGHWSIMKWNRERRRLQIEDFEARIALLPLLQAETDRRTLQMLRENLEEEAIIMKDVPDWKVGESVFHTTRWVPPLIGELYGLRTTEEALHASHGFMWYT
UniProt Q9NX14, residues 30-153: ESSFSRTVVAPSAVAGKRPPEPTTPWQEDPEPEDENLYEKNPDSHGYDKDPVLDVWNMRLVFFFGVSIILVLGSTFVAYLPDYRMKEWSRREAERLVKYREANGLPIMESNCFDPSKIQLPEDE

No constants are given. Whether binding was seen depends on the method and setting. In cells and extracts the contact can be indirect. Here binding means that the protein was enriched with, or labelled near, the bait; the list need not be complete. A no says only that the protein was not detected with the bait. Tags and fused reporters may be left off the sequences shown.

The labels stand for the following.
T1: TMEM126A with a C-terminal Flag epitope tag (human) (UniProt Q9H061)
T1 sequence: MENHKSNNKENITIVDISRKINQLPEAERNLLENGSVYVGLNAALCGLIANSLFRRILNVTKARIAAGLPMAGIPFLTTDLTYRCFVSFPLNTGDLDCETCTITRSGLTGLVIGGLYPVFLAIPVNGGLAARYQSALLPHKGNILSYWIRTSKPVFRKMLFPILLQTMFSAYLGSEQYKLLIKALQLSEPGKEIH

B1: ECSIT (protein, UniProt Q9BQ95 49-431)
chain: SSEQSLVPSPPEPRQRPTKALVPFEDLFGQAPGGERDKASFLQTVQKFAEHSVRKRGHIDFIYLALRKMREYGVERDLAVYNQLLNIFPKEVFRPRNIIQRIFVHYPRQQECGIAVLEQMENHGVMPNKETEFLLIQIFGRKSYPMLKLVRLKLWFPRFMNVNPFPVPRDLPQDPVELAMFGLRHMEPDLSARVTIYQVPLPKDSTGAADPPQPHIVGIQSPDQQAALARHNPARPVFVEGPFSLWLRNKCVYYHILRADLLPPEEREVEETPEEWNLYYPMQLDLEYVRSGWDNYEFDINEVEEGPVFAMCMAGAHDQATMAKWIQGLQETNPTLAQIPVVFRLAGSTRELQTSSAGLEEPPLPEDHQEEDDNLQRQQQGQS
B2: ACAD9 (protein, UniProt Q9H845 38-621)
chain: AFAKELFLGKIKKKEVFPFPEVSQDELNEINQFLGPVEKFFTEEVDSRKIDQEGKIPDETLEKLKSLGLFGLQVPEEYGGLGFSNTMYSRLGEIISMDGSITVTLAAHQAIGLKGIILAGTEEQKAKYLPKLASGEHIAAFCLTEPASGSDAASIRSRATLSEDKKHYILNGSKVWITNGGLANIFTVFAKTEVVDSDGSVKDKITAFIVERDFGGVTNGKPEDKLGIRGSNTCEVHFENTKIPVENILGEVGDGFKVAMNILNSGRFSMGSVVAGLLKRLIEMTAEYACTRKQFNKRLSEFGLIQEKFALMAQKAYVMESMTYLTAGMLDQPGFPDCSIEAAMVKVFSSEAAWQCVSEALQILGGLGYTRDYPYERILRDTRILLIFEGTNEILRMYIALTGLQHAGRILTTRIHELKQAKVSTVMDTVGRRLRDSLGRTVDLGLTGNHGVVHPSLADSANKFEENTYCFGRTVETLLLRFGKTIMEEQLVLKRVANILINLYGMTAVLSRASRSIRIGLRNHDHEVLLANTFCVEAYLQNLFSLSQLDKYAPENLDEQIKKVSQQILEKRAYICAHPLDRTC
B3: FOXRED1 (protein, UniProt Q96CU9 1-486)
chain: MIRRVLPHGMGRGLLTRRPGTRRGGFSLDWDGKVSEIKKKIKSILPGRSCDLLQDTSHLPPEHSDVVIVGGGVLGLSVAYWLKKLESRRGAIRVLVVERDHTYSQASTGLSVGGICQQFSLPENIQLSLFSASFLRNINEYLAVVDAPPLDLRFNPSGYLLLASEKDAAAMESNVKVQRQEGAKVSLMSPDQLRNKFPWINTEGVALASYGMEDEGWFDPWCLLQGLRRKVQSLGVLFCQGEVTRFVSSSQRMLTTDDKAVVLKRIHEVHVKMDRSLEYQPVECAIVINAAGAWSAQIAALAGVGEGPPGTLQGTKLPVEPRKRYVYVWHCPQGPGLETPLVADTSGAYFRREGLGSNYLGGRSPTEQEEPDPANLEVDHDFFQDKVWPHLALRVPAFETLKVQSAWAGYYDYNTFDQNGVVGPHPLVVNMYFATGFSGHGLQQAPGIGRAVAEMVLKGRFQTIDLSPFLFTRFYLGEKIQENNII
B4: TIMMDC1 (protein, UniProt Q9NPL8 1-285)
chain: MEVPPPAPRSFLCRALCLFPRVFAAEAVTADSEVLEERQKRLPYVPEPYYPESGWDRLRELFGKDEQQRISKDLANICKTAATAGIIGWVYGGIPAFIHAKQQYIEQSQAEIYHNRFDAVQSAHRAATRGFIRYGWRWGWRTAVFVTIFNTVNTSLNVYRNKDALSHFVIAGAVTGSLFRINVGLRGLVAGGIIGALLGTPVGGLLMAFQKYSGETVQERKQKDRKALHELKLEEWKGRLQVTEHLPEKIESSLQEDEPENDAKKIEALLNLPRNPSVIDKQDKD
B5: TMEM70 (protein, UniProt Q9BUB7 82-260)
chain: LNTPSDKSEDGRLIYTGNMARAVFGVKCFSYSTSLIGLTFLPYIFTQNNAISESVPLPIQIIFYGIMGSFTVITPVLLHFITKGYVIRLYHEATTDTYKAITYNAMLAETSTVFHQNDVKIPDAKHVFTTFYAKTKSLLVNPVLFPNREDYIHLMGYDKEEFILYMEETSEEKRHKDDK
B6: DMAC2 (protein, UniProt Q9NW81 1-257)
chain: MAAPWASLRLVAPMWNGRIRGIHRLGAAVAPEGNQKKKRTILQFLTNYFYDVEALRDYLLQREMYKVHEKNRSYTWLEKQHGPYGAGAFFILKQGGAVKFRDKEWIRPDKYGHFSQEFWNFCEVPVEAVDAGDCDINYEGLDNLLRLKELQSLSLQRCCHVDDWCLSRLYPLADSLQELSLAGCPRISERGLACLHHLQNLRRLDISDLPAVSNPGLTQILVEEMLPNCEVVGVDWAEGLKSGPEEQPRDTASPVPA

The assay deals with T1, TMEM126A with a C-terminal Flag epitope tag (human). Briefly: affinity purification with mass spectrometry.
With NDUFAF3 (from UniProt Q9BU61 1-184), the binding entry is reported as “binds”.
To NDUFA8 (from UniProt P51970 1-172) belongs “binds”; to NDUFB9 (from UniProt Q9Y6M9 1-179), “binds”.
With NDUFB5 (from UniProt O43674 47-189), the binding entry is listed as “binds”.
To NDUFAF4 (from UniProt Q9P032 1-175) belongs “binds”.
Next, NDUFA3 (from UniProt O95167 1-84): “binds”; NDUFB6 (from UniProt O95139 1-128): “binds”.
In the case of OXA1L (human (endogenous in HEK293T)), the binding entry is “binds”.
On to NDUFA10 (from UniProt O95299 36-355), for which the binding entry is on record as “binds”.
Next, NDUFB8 (from UniProt O95169 29-186): “binds”; NDUFA13 (from UniProt Q9P0J0 1-144): “binds”.
Next, NDUFB11 (from UniProt Q9NX14 30-153): “binds”; B1: “binds”.
With B2, the binding result is listed as “binds”.
Next, B3: “no binding”; B4: “binds”.
Consider B5, for which the binding entry is “binds”.
Next, B6: “no binding”.
